{"source": "patent US8143316B2", "about": "“Method for treating peripheral vascular diseases” (Sucampo AG, priority 2005, dated 2012)", "tested_on": "streptozotocin-induced diabetic rats", "test": "Cutaneous tissue blood flow in streptozotocin-induced diabetic rats", "type": "in vivo, rat", "details": "30 μg/kg i.v. over 10 min, mean ± S.E., n=5", "protocol": "Diabetes was induced by single intravenous injection of 50 mg/kg streptozotocin (STZ) in 7-week-old male Crl: CD(SD) rats. Animals with plasma glucose levels 400 mg/dL or more on day 19 after the STZ treatment were used in this study. Three weeks after the STZ injection, animals were anesthetized by an intraperitoneal injection of thiobutabarbital sodium. Body temperature (rectal temperature) of the animals was maintained at approximately 37° C. throughout the experiment with a heating pad After depilating the instep of the right hind limb with a depilatory cream, the cutaneous tissue blood flow (CTBF) was measured continuously using a non-contact type laser Doppler flowmeter (FLO-N1, Omegawave Inc., Japan). The blood pressure and heart rate were simultaneously monitored. Compound A or the vehicle was intravenously administered to the animals over 10 min.", "note": "At least one compound was matched to its structure with a doubt left.", "data": [{"smiles": "CCCCC(F)(F)C(=O)CCC1CCC(=O)C1CCCCCCC(=O)O", "note": "(stereo not drawn) [Compound A, 11-deoxy-13,14-dihydro-15-keto-16,16-difluoro-PGE1]", "values": [{"measurement": "Cutaneous Tissue Blood Flow, 5 min after initiation of dosing", "setting": "5 min", "value": "6.2 ± 0.5", "unit": "mL/min/100 g tissue"}, {"measurement": "Cutaneous Tissue Blood Flow, 10 min after initiation of dosing", "setting": "10 min", "value": "5.9 ± 0.5", "unit": "mL/min/100 g tissue"}, {"measurement": "Cutaneous Tissue Blood Flow, 30 min after initiation of dosing", "setting": "30 min", "value": "5.2 ± 0.5", "unit": "mL/min/100 g tissue"}]}]}
